From US9182410
These are yes or no findings as the source states them, for the method shown. Some results given as binding are weak or reduced against the parent protein; the word gives no strength.

Target: TNFR2:Fc (human)
Test: Protein A affinity chromatography (MabSelect SuRe resin), capture from cell-free culture supernatant, elution at pH ~3.2

With “Protein A (MabSelect SuRe resin, GE Healthcare) (from UniProt P38507 212-269)” the binding was “binds”.
